From article doi:10.1101/2024.10.27.620453 come the findings set out here.

Sequences of proteins named here, by UniProt entry; tags and fusion partners are left off. A change or cut given only in a name is not applied to a line headed by its entry. A line that says so, or that is headed by a name, gives the form on record, which may keep a tag or linker. Residues count along the entry.
UniProt O75460: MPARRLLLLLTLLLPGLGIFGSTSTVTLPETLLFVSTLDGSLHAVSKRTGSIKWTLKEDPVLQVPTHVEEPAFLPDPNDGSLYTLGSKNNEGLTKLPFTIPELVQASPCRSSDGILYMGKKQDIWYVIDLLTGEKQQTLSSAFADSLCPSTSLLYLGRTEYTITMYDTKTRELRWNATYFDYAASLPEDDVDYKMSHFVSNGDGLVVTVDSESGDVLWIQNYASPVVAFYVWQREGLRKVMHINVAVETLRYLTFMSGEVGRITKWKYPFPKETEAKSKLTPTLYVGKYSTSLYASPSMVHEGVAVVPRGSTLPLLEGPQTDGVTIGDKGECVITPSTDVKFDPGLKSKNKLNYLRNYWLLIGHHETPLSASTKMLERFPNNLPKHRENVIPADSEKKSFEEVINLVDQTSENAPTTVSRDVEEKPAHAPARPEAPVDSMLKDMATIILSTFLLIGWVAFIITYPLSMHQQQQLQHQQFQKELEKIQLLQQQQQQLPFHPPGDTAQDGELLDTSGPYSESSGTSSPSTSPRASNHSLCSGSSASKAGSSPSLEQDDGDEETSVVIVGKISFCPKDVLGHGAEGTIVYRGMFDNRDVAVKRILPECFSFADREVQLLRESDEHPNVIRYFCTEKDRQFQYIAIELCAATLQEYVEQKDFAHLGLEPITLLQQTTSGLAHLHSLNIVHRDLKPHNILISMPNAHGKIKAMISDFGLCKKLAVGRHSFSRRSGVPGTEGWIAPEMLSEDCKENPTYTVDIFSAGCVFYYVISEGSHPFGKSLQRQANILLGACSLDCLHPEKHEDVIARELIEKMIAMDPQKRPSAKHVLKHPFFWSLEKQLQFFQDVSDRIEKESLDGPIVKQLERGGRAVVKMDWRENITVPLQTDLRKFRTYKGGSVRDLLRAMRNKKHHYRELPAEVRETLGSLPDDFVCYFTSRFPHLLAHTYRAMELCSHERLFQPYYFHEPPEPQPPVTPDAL
Flagged IRE1 WT: residues 19-977 of O75460
Flagged IRE1 N683D mutant (O75460, form named): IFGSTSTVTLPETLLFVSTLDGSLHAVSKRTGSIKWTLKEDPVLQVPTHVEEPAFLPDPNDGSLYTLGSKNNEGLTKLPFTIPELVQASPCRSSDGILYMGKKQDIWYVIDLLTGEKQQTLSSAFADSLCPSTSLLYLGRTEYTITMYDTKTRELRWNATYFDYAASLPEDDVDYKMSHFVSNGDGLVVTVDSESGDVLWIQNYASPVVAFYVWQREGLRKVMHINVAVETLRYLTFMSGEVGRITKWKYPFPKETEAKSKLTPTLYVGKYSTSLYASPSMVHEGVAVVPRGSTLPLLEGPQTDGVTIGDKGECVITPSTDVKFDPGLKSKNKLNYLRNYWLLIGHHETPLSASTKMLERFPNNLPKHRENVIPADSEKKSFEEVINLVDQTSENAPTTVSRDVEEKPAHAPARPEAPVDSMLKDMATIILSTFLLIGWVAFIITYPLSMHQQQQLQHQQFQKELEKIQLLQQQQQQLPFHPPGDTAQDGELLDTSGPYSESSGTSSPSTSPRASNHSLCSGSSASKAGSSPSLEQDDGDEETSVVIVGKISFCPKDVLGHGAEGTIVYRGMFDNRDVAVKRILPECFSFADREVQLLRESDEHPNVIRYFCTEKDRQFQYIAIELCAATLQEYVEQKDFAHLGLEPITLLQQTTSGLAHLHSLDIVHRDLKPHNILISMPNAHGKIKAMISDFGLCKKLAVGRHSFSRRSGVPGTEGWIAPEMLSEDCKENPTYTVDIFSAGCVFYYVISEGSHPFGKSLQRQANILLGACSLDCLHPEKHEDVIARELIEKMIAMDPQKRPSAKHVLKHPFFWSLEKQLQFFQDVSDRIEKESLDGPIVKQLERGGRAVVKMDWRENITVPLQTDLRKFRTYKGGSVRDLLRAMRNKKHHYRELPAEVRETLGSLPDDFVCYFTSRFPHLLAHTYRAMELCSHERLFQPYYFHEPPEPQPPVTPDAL
UniProt P53618: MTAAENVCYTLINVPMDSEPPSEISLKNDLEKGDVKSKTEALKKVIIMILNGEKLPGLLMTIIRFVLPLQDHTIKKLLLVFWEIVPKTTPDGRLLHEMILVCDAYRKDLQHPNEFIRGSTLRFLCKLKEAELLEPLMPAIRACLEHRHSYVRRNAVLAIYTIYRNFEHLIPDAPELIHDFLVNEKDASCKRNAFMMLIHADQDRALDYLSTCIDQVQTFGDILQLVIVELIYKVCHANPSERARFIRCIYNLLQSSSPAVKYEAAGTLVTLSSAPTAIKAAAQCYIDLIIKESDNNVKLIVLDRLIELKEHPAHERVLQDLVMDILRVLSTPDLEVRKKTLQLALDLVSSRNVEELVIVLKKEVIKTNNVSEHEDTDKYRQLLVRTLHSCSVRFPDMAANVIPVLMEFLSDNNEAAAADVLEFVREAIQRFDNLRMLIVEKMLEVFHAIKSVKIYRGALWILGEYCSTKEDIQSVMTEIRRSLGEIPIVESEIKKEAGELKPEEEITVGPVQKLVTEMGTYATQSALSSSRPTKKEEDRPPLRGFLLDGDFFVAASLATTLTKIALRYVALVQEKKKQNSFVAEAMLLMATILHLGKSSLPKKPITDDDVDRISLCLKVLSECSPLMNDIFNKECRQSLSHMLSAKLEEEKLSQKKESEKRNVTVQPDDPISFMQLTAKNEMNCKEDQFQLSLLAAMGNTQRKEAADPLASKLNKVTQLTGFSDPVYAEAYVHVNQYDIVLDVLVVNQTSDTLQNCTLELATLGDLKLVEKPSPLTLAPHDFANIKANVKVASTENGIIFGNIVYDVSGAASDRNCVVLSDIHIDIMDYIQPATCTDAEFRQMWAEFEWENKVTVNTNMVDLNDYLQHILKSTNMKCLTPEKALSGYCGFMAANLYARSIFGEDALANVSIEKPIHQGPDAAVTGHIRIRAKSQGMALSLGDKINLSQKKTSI

B1: Gal4 Activation Domain-UPF1 (prey, pP7) (protein, UniProt Q92900 1-1129)
chain: MSVEAYGPSSQTLTFLDTEEAELLGADTQGSEFEFTDFTLPSQTQTPPGGPGGPGGGGAGGPGGAGAGAAAGQLDAQVGPEGILQNGAVDDSVAKTSQLLAELNFEEDEEDTYYTKDLPIHACSYCGIHDPACVVYCNTSKKWFCNGRGNTSGSHIVNHLVRAKCKEVTLHKDGPLGETVLECYNCGCRNVFLLGFIPAKADSVVVLLCRQPCASQSSLKDINWDSSQWQPLIQDRCFLSWLVKIPSEQEQLRARQITAQQINKLEELWKENPSATLEDLEKPGVDEEPQHVLLRYEDAYQYQNIFGPLVKLEADYDKKLKESQTQDNITVRWDLGLNKKRIAYFTLPKTDSGNEDLVIIWLRDMRLMQGDEICLRYKGDLAPLWKGIGHVIKVPDNYGDEIAIELRSSVGAPVEVTHNFQVDFVWKSTSFDRMQSALKTFAVDETSVSGYIYHKLLGHEVEDVIIKCQLPKRFTAQGLPDLNHSQVYAVKTVLQRPLSLIQGPPGTGKTVTSATIVYHLARQGNGPVLVCAPSNIAVDQLTEKIHQTGLKVVRLCAKSREAIDSPVSFLALHNQIRNMDSMPELQKLQQLKDETGELSSADEKRYRALKRTAERELLMNADVICCTCVGAGDPRLAKMQFRSILIDESTQATEPECMVPVVLGAKQLILVGDHCQLGPVVMCKKAAKAGLSQSLFERLVVLGIRPIRLQVQYRMHPALSAFPSNIFYEGSLQNGVTAADRVKKGFDFQWPQPDKPMFFYVTQGQEEIASSGTSYLNRTEAANVEKITTKLLKAGAKPDQIGIITPYEGQRSYLVQYMQFSGSLHTKLYQEVEIASVDAFQGREKDFIILSCVRANEHQGIGFLNDPRRLNVALTRARYGVIIVGNPKALSKQPLWNHLLNYYKEQKVLVEGPLNNLRESLMQFSKPRKLVNTINPGARFMTTAMYDAREAIIPGSVYDRSSQGRPSSMYFQTHDQIGMISAGPSHVAAMNIPIPFNLVMPPMPPPGYFGQANGPAAGRGTPKGKTGRGGRQKNRFGLPGPSQTNLPNSQASQDVASQPFSQGALTQGYISMSQPSQMSQPGLSQPELSQDSYLGDEFKSQIDVALSQDSTYQGERAYQHGGVTGLSQY
B2: Gal4 Activation Domain-HNRNPL (prey, pP7) (protein, UniProt P14866 1-589)
chain: MSRRLLPRAEKRRRRLEQRQQPDEQRRRSGAMVKMAAAGGGGGGGRYYGGGSEGGRAPKRLKTDNAGDQHGGGGGGGGGAGAAGGGGGGENYDDPHKTPASPVVHIRGLIDGVVEADLVEALQEFGPISYVVVMPKKRQALVEFEDVLGACNAVNYAADNQIYIAGHPAFVNYSTSQKISRPGDSDDSRSVNSVLLFTILNPIYSITTDVLYTICNPCGPVQRIVIFRKNGVQAMVEFDSVQSAQRAKASLNGADIYSGCCTLKIEYAKPTRLNVFKNDQDTWDYTNPNLSGQGDPGSNPNKRQRQPPLLGDHPAEYGGPHGGYHSHYHDEGYGPPPPHYEGRRMGPPVGGHRRGPSRYGPQYGHPPPPPPPPEYGPHADSPVLMVYGLDQSKMNCDRVFNVFCLYGNVEKVKFMKSKPGAAMVEMADGYAVDRAITHLNNNFMFGQKLNVCVSKQPAIMPGQSYGLEDGSCSYKDFSESRNNRFSTPEQAAKNRIQHPSNVLHFFNAPLEVTEENFFEICDELGVKRPSSVKVFSGKSERSSSGLLEWESKSDALETLGFLNHYQMKNPNGPYPYTLKLCFSTAQHAS
B3: Gal4 Activation Domain-PDIA4 (prey, pP7) (protein, UniProt P13667 1-645)
chain: MRPRKAFLLLLLLGLVQLLAVAGAEGPDEDSSNRENAIEDEEEEEEEDDDEEEDDLEVKEENGVLVLNDANFDNFVADKDTVLLEFYAPWCGHCKQFAPEYEKIANILKDKDPPIPVAKIDATSASVLASRFDVSGYPTIKILKKGQAVDYEGSRTQEEIVAKVREVSQPDWTPPPEVTLVLTKENFDEVVNDADIILVEFYAPWCGHCKKLAPEYEKAAKELSKRSPPIPLAKVDATAETDLAKRFDVSGYPTLKIFRKGRPYDYNGPREKYGIVDYMIEQSGPPSKEILTLKQVQEFLKDGDDVIIIGVFKGESDPAYQQYQDAANNLREDYKFHHTFSTEIAKFLKVSQGQLVVMQPEKFQSKYEPRSHMMDVQGSTQDSAIKDFVLKYALPLVGHRKVSNDAKRYTRRPLVVVYYSVDFSFDYRAATQFWRSKVLEVAKDFPEYTFAIADEEDYAGEVKDLGLSESGEDVNAAILDESGKKFAMEPEEFDSDTLREFVTAFKKGKLKPVIKSQPVPKNNKGPVKVVVGKTFDSIVMDPKKDVLIEFYAPWCGHCKQLEPVYNSLAKKYKGQKGLVIAKMDATANDVPSDRYKVEGFPTIYFAPSGDKKNPVKFEGGDRDLEHLSKFIEEHATKLSRTKEEL
B4: Gal4 Activation Domain-RPN1 (prey, pP7) (protein, UniProt P04843 1-607)
chain: MEAPAAGLFLLLLLGTWAPAPGSASSEAPPLINEDVKRTVDLSSHLAKVTAEVVLAHLGGGSTSRATSFLLALEPELEARLAHLGVQVKGEDEEENNLEVRETKIKGKSGRFFTVKLPVALDPGAKISVIVETVYTHVLHPYPTQITQSEKQFVVFEGNHYFYSPYPTKTQTMRVKLASRNVESYTKLGNPTRSEDLLDYGPFRDVPAYSQDTFKVHYENNSPFLTITSMTRVIEVSHWGNIAVEENVDLKHTGAVLKGPFSRYDYQRQPDSGISSIRSFKTILPAAAQDVYYRDEIGNVSTSHLLILDDSVEMEIRPRFPLFGGWKTHYIVGYNLPSYEYLYNLGDQYALKMRFVDHVFDEQVIDSLTVKIILPEGAKNIEIDSPYEISRAPDELHYTYLDTFGRPVIVAYKKNLVEQHIQDIVVHYTFNKVLMLQEPLLVVAAFYILFFTVIIYVRLDFSITKDPAAEARMKVACITEQVLTLVNKRIGLYRHFDETVNRYKQSRDISTLNSGKKSLETEHKALTSEIALLQSRLKTEGSDLCDRVSEMQKLDAQVKELVLKSAVEAERLVAGKLKKDTYIENEKLISGKRQELVTKIDHILDAL
B5: Gal4 Activation Domain-PTPN1 (prey, pP7, AD-prey) (enzyme, UniProt P18031 1-435)
chain: MEMEKEFEQIDKSGSWAAIYQDIRHEASDFPCRVAKLPKNKNRNRYRDVSPFDHSRIKLHQEDNDYINASLIKMEEAQRSYILTQGPLPNTCGHFWEMVWEQKSRGVVMLNRVMEKGSLKCAQYWPQKEEKEMIFEDTNLKLTLISEDIKSYYTVRQLELENLTTQETREILHFHYTTWPDFGVPESPASFLNFLFKVRESGSLSPEHGPVVVHCSAGIGRSGTFCLADTCLLLMDKRKDPSSVDIKKVLLEMRKFRMGLIQTADQLRFSYLAVIEGAKFIMGDSSVQDQWKELSHEDLEPPPEHIPPPPRPPKRILEPHNGKCREFFPNHQWVKEETQEDKDCPIKEEKGSPLNAAPYGIESMSQDTEVRSRVVGGSLRGAQAASPAKGEPSLPEKDEDHALSYWKPFLVNMCVATVLTAGAYLCYRFLFNSNT
B6: PTPN1-Gal4 Activation Domain (prey, pP13, prey-AD) (enzyme, UniProt P18031 1-435)
chain: MEMEKEFEQIDKSGSWAAIYQDIRHEASDFPCRVAKLPKNKNRNRYRDVSPFDHSRIKLHQEDNDYINASLIKMEEAQRSYILTQGPLPNTCGHFWEMVWEQKSRGVVMLNRVMEKGSLKCAQYWPQKEEKEMIFEDTNLKLTLISEDIKSYYTVRQLELENLTTQETREILHFHYTTWPDFGVPESPASFLNFLFKVRESGSLSPEHGPVVVHCSAGIGRSGTFCLADTCLLLMDKRKDPSSVDIKKVLLEMRKFRMGLIQTADQLRFSYLAVIEGAKFIMGDSSVQDQWKELSHEDLEPPPEHIPPPPRPPKRILEPHNGKCREFFPNHQWVKEETQEDKDCPIKEEKGSPLNAAPYGIESMSQDTEVRSRVVGGSLRGAQAASPAKGEPSLPEKDEDHALSYWKPFLVNMCVATVLTAGAYLCYRFLFNSNT
B7: PTPN1-mCherry (plasmid pPTP1BD181A-mCherry) (enzyme, UniProt P18031 1-435)
chain: MEMEKEFEQIDKSGSWAAIYQDIRHEASDFPCRVAKLPKNKNRNRYRDVSPFDHSRIKLHQEDNDYINASLIKMEEAQRSYILTQGPLPNTCGHFWEMVWEQKSRGVVMLNRVMEKGSLKCAQYWPQKEEKEMIFEDTNLKLTLISEDIKSYYTVRQLELENLTTQETREILHFHYTTWPAFGVPESPASFLNFLFKVRESGSLSPEHGPVVVHCSAGIGRSGTFCLADTCLLLMDKRKDPSSVDIKKVLLEMRKFRMGLIQTADQLRFSYLAVIEGAKFIMGDSSVQDQWKELSHEDLEPPPEHIPPPPRPPKRILEPHNGKCREFFPNHQWVKEETQEDKDCPIKEEKGSPLNAAPYGIESMSQDTEVRSRVVGGSLRGAQAASPAKGEPSLPEKDEDHALSYWKPFLVNMCVATVLTAGAYLCYRFLFNSNT

Results are given in words; binding and its absence hold for the method and conditions named. For part of these data: Binding seen in cells or lysates may run through a third protein. Some binding calls cover weakened binding; strength is not graded here. For part of these data: Where a sequence is shown, tags or fusion partners need not be part of it.

The first experiment addresses Gal4 DNA binding domain-IRE1 K599A (bait, pB66) (human) (UniProt O75460). Briefly: two-hybrid.
For the molecule “Gal4 Activation Domain-COPB1 (prey, pP7) (from UniProt P53618 1-953)”, the binding result was “binds”.

With B1, the binding result is “no binding”.

On to B2, for which the binding result was “no binding”.

In the case of B3, the binding entry is given as “no binding”.

For the molecule B4, the binding result is reported as “no binding”.

In the case of B5, the binding entry was “no binding”.

B6: the binding entry is reported as “no binding”.

In the next experiment the target is Flagged IRE1 WT (human) (UniProt O75460). Briefly: co-IP.
As for B7, the binding result is given as “binds”.

The target of a further experiment is Flagged IRE1 N683D mutant (human) (UniProt O75460). Put plainly: co-IP.
As to B7, the binding entry was “binds”.
